# In PubChem BioAssay AID445 (National Center for Advancing Translational Sciences (NCATS), 2006):
# “And” between values parts separate entries of the source, which are not always exact repeats. Equal values may be shown once. Some of the results follow. These are further read-outs of the screen, such as a control signal, another cell line or another target. No call is given for them. Most of these compounds were active or inconclusive in the main read-out, so they are no random draw. Potencies come from curve fits of mixed quality, noted in brackets.
# Experiment: IkB Signaling
# Conditions: ABC-DLBCL IkBa-CBG/CBR dual luciferase ratio (green luciferase fused to IkBa over red control in OCI-Ly3 lymphoma cells), 4 h
# Method in brief: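 Luminescence ratio of IκBα-fused green versus native red beetle luciferase in OCI-Ly3 cells, 4 h post-doxycycline with compound; red signal alone, scaled from basal (0%) to zero light (-100%), flagged nonspecific or cytotoxic effects.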
# [1] = measured here: control luc red channel unless noted
smiles,measurement,setting,value
COc1ccc(S(=O)(=O)N(CC(=O)Nc2ccccc2Br)Cc2ccccc2)cc1,AC50,[1],"7.94 µM [falling, partial curve]"
CC(NC(=O)CC1Nc2ccccc2NC1=O)c1ccccc1 (stereo not given),AC50,[1],"12.6 µM [falling, partial curve]"
Cc1cn2c(=O)cc(COc3ccccc3NC(=O)c3ccco3)nc2s1,AC50,[1],"0.0794 µM [rising, full curve, poor fit]"
O=S(=O)(c1ccc(Br)cc1)c1nnn2c1nc(N1CCOCC1)c1sccc12,AC50,[1],"12.6 µM [falling, partial curve]"
CC(C)C(C(=O)NCc1ccco1)N(C(=O)CNS(=O)(=O)c1ccc(Cl)cc1)C1CCCC1 (stereo not given),AC50,[1],"15.8 µM [falling, partial curve]"
CCN1CCc2nc3sc(C(=O)Nc4cccc(Cl)c4C)c(N)c3cc2C1,AC50,[1],"25.1 µM [falling, single point]"
CC1CCC(C(=O)NC(C(=O)OCC(=O)c2ccccc2)C(C)C)CC1 (stereo not given),AC50,[1],"25.1 µM [falling, single point]"
O=C(Nc1cccc(-c2nnn(CC(=O)N3CCc4ccccc4C3)n2)c1)C1CCC1,AC50,[1],"39.8 µM [falling, single point]"
COc1ccc(-c2noc(CCC(=O)N3CCN(c4cc(C)ccc4C)CC3)n2)cc1,AC50,[1],"10 µM [falling, partial curve]"
CCc1cnc2c(c1SCC(=O)c1ccccc1)c(=O)n(C)c(=O)n2C,AC50,[1],"31.6 µM [falling, single point]"
COc1cccc(-c2cn3nc4c(nc3n2)CCCC4)c1,AC50,[1],"10 µM [falling, partial curve]"
COc1ccc(-c2ccc(NS(=O)(=O)c3ccc(OC)c(OC)c3)cc2)nn1,AC50,[1],"15.8 µM [falling, partial curve]"
COc1ccc(OCc2nc3ccccc3n2Cc2ccccc2Cl)cc1,AC50,[1],"25.1 µM [falling, single point]"
Cc1ccc(N(Cc2cccs2)C(=O)COc2cccc(C)c2)cc1,AC50,[1],"20 µM [falling, partial curve]"
CC(=O)c1ccc(NC(=O)Cn2c(=O)n(Cc3ccco3)c(=O)c3sc4ccccc4c32)cc1,AC50,[1],"7.94 µM [falling, single point]"
Cc1ccc(S(=O)(=O)N2CCN(C(=O)CCC(=O)NC3CCCc4ccccc43)CC2)cc1 (stereo not given),AC50,[1],"25.1 µM [falling, partial curve]"
COc1ccc(C2=NC(C)(C)N(CC(=O)Nc3ccc(F)c(F)c3)C2=O)cc1,AC50,[1],"25.1 µM [falling, partial curve]"
CCN1CCN(c2cc(C)c3cc(NC(=O)c4cc(Cl)ccc4OC)ccc3n2)CC1,AC50,[1],"15.8 µM [falling, partial curve]"
C=CCNc1nc2c3ccccc3n(C(C)=O)c2s1,AC50,measured here: IkB-luc green channel,"39.8 µM [rising, single point]"
same,AC50,measured here: control luc red channel,"31.6 µM [falling, single point]"
CC1(C)CC(=O)C2=C(C1)Oc1ncn(Cc3ccco3)c(=N)c1C2c1ccccc1 (stereo not given),AC50,[1],"15.8 µM [falling, partial curve]"
Cc1ccc(OCC(O)Cn2c(=N)n(CCN3CCCCC3)c3ccccc32)cc1 (stereo not given),AC50,[1],"25.1 µM [falling, single point] and 31.6 µM [falling, single point]"
Cc1ccc(NC(=O)c2c(C)nc3sc(C(=O)Nc4ccc(F)cc4)c(N)c3c2-c2ccccc2Cl)c(C)c1,AC50,[1],"2 µM [falling, partial curve]"
CCOC(=O)Cn1nnnc1CN(Cc1ccc(OC)cc1)Cc1cc2cc(CC)ccc2[nH]c1=O,AC50,[1],"12.6 µM [falling, partial curve]"
COc1ccccc1NS(=O)(=O)c1cc2c(cc1Cl)NC(=O)CO2,AC50,[1],"25.1 µM [falling, single point]"
CCOc1ccc(CCNC(=O)CSc2cc(=O)n(C)c3ccc(Cl)cc23)cc1OCC,AC50,[1],"10 µM [falling, partial curve]"
CCCc1cnc2c(c1SCc1ccc(C(F)(F)F)cc1)c(=O)n(C)c(=O)n2C,AC50,[1],"5.01 µM [falling, partial curve]"
CN(C)S(=O)(=O)c1cccc(C(=O)Nc2cc(Cl)ccc2O)c1,AC50,[1],"39.8 µM [falling, single point]"
Cc1ccc(NC(=O)CSc2ccc(-c3sc(-c4ccccc4)nc3C)nn2)cc1F,AC50,[1],"7.94 µM [falling, full curve]"
COc1ccc(-c2nnn(Cc3nc(N)nc(N4CCCCC4)n3)n2)cc1,AC50,[1],"12.6 µM [falling, partial curve]"
Cc1cccc(N2CCN(C(=O)CCSCc3ccccc3F)CC2)c1C,AC50,[1],"39.8 µM [falling, single point]"
COc1ccccc1N1CCN(C(=O)Cn2ncc3c(=O)oc4ccc(C)cc4c32)CC1,AC50,[1],"12.6 µM [falling, partial curve]"
CN(C)S(=O)(=O)c1ccc(C(=O)Nc2ccc(-n3nncc3-c3ccccc3)cc2)cc1,AC50,[1],"31.6 µM [falling, single point]"
O=C(COC(=O)c1c2c(nc3ccccc13)CCCC2)Nc1ccc2c(c1)OCO2,AC50,[1],"12.6 µM [falling, partial curve]"
CCCc1[nH][nH]c(=O)c1C(c1ccccc1)C(C#N)C#N (stereo not given),AC50,[1],"39.8 µM [rising, single point] [measured here: IkB-luc green channel]"
CCCCNC(=O)c1cnn2c(C)c(Cc3c(F)cccc3Cl)c(C)nc12,AC50,[1],"39.8 µM [falling, partial curve]"
COc1ccc(-c2cc(C(=O)N3CCN(c4ccccn4)CC3)c3ccccc3n2)cc1,AC50,[1],"7.94 µM [falling, partial curve]"
COc1ccc(Cc2nccc3cc(OC)c(OC)cc23)cc1OC,AC50,[1],"39.8 µM [rising, single point] [measured here: IkB-luc green channel]"
Cc1nc2cc(NC(=O)N(C)c3ccc4ccccc4c3)ccc2o1,AC50,[1],"20 µM [falling, partial curve]"
O=C1NCCCc2c1oc1cc(Br)c(O)c(Br)c21,AC50,[1],"25.1 µM [falling, single point]"

# Part of the list above, reformatted:
smiles | measurement | setting | value
CC(C)C(C(=O)NCc1ccco1)N(C(=O)CNS(=O)(=O)c1ccc(Cl)cc1)C1CCCC1 (stereo not given) | AC50 | [1] | 15.8 µM [falling, partial curve]
CCN1CCc2nc3sc(C(=O)Nc4cccc(Cl)c4C)c(N)c3cc2C1 | AC50 | [1] | 25.1 µM [falling, single point]
CC1CCC(C(=O)NC(C(=O)OCC(=O)c2ccccc2)C(C)C)CC1 (stereo not given) | AC50 | [1] | 25.1 µM [falling, single point]
